Library screening results

The filed quantity is “Percent Effect” (%). The controls that fix the scale are not given in the record; negative values are as filed. The compounds are a random part of those screened.

Mtb growth Cornell: 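Whole-cell assay for inhibitors of Mycobacterium tuberculosis growth, labelled Cornell in the record; the read-out is not stated. The concentration is filed as 10 mM, unlikely as a test dose, so the dose is not known. The record gives no direction; compounds strong in two other growth screens of this library score well above the rest, so higher reads as stronger inhibition. About 53,000 compounds were tested under these conditions; 1.7% (about 900) showed 50% or more at least once.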
Mtb heat-shock: 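Assay on Mycobacterium tuberculosis, filed only as a heat shock assay from Cornell; the read-out is not stated. The concentration is filed as 10 mM, unlikely as a test dose, so the dose is not known. The record gives no direction; compounds that gave an IC50 in retests scored well above the rest, so higher reads as stronger inhibition. Size under these conditions: about 69,000 compounds, about 930 of them at 50% or above in at least one test.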

O=C(O)C(F)(F)F.[H][C@@]12CCN(CC(=O)NC)C[C@]1([H])CN(C(=O)c1ccc(C)cc1)C2 gave Mtb heat-shock: -25.29%.
CCc1cccc(OC2CN(C(=O)[C@@H](N)[C@@H](C)O)C2)c1 gave Mtb heat-shock: -19.64%.
O=C(O)C(F)(F)F.O=C(O)C(F)(F)F.[H][C@]12CCN(c3ncccn3)[C@@]1([H])CC[C@H](COCc1ccccn1)O2 gave Mtb growth Cornell: -6.808%; Mtb heat-shock: -11.93%.
Cc1ccc(-c2cc(C(=O)NCCCc3csc(N)n3)[nH]n2)s1 gave Mtb growth Cornell: -39.66%; Mtb heat-shock: 28.63%.
COc1ccc(CCC(=O)N2CCNCC2C(=O)N2CCOCC2)cc1 (centres unmarked) gave Mtb heat-shock: 12.15%.
CN(Cc1nnc(C2CC2)n1C)C(=O)c1ccnc(OC2CCC2)c1 gave Mtb heat-shock: -2.389%.
CCOC1COC2(CCN(Cc3ccco3)CC2)C1.O=C(O)C(F)(F)F (centres unmarked) gave Mtb heat-shock: -9.709%.
FC(F)(F)c1cccc(CN2CCOC[C@H](Oc3cccnc3)C2)c1 gave Mtb growth Cornell: 12.29%; Mtb heat-shock: -47.84%.
CCN(Cc1ccc(C#N)cc1F)C(=O)C(C)(C)C gave Mtb heat-shock: -17.58%.
N#Cc1ccc(S(=O)(=O)NC(=O)C2CC(c3ccccc3)=NO2)cc1 (centres unmarked) gave Mtb growth Cornell: 41.76%; Mtb heat-shock: 13.58%.
Cc1nn(C)c(N(C)C)c1CNCc1ccccc1Cn1cncn1 gave Mtb heat-shock: 7.741%.
O=C(O)C(F)(F)F.O=C(O)C(F)(F)F.O=C(c1ccnnc1)N1CCN(Cc2ccncc2)c2ncccc2C1 gave Mtb growth Cornell: 5.328%; Mtb heat-shock: -18.07%.
O=C(NCCn1ccnc1)c1cc(Br)c[nH]1 gave Mtb growth Cornell: 6.552%; Mtb heat-shock: 27.62%.
Cn1cc(CN2CCC(c3cc(COc4ccc(Cl)cc4)[nH]n3)C2)cn1 (centres unmarked) gave Mtb growth Cornell: 8.733%; Mtb heat-shock: 12.04%.
N#Cc1cc(NC(=O)c2cc[nH]n2)ccc1N1CCC(O)CC1 gave Mtb growth Cornell: -39.27%; Mtb heat-shock: 19.75%.
O=C(O)C(F)(F)F.O=C(c1cccc(F)c1)N1CCC2(CC1)CC(N1CCOCC1)C2 gave Mtb growth Cornell: 27.93%; Mtb heat-shock: -0.407%.
CNC(=O)CCN(C)CC1(c2ccc(Br)cc2)CC1 gave Mtb heat-shock: 1.657%.
COc1ccc(NC2(C(=O)N3CCn4cncc4C3)CCCC2)cc1 gave Mtb heat-shock: 1.071%.
CC(C)(C)n1cc(C2=CCN(CCNC(=O)c3ccccc3)CC2)cn1 gave Mtb growth Cornell: 23.97%; Mtb heat-shock: 0.1224%.
Cc1nc2cc(=O)[nH]n2c(C)c1CC(=O)NCCCc1ccccc1 gave Mtb heat-shock: 31.12%.
CCN1C(=O)CCC12CCCN(Cc1ccc(F)cc1)CC2.O=C(O)C(F)(F)F (centres unmarked) gave Mtb growth Cornell: 29.48%; Mtb heat-shock: 6.087%.
CNC(=O)C1Cn2ccnc2C2(CCN(C(=O)c3ccoc3C)CC2)O1.O=C(O)C(F)(F)F (centres unmarked) gave Mtb growth Cornell: -19.24%; Mtb heat-shock: -12.78%.
CN(CCC(F)(F)F)C(=O)[C@H]1CSCN1C(=O)OC(C)(C)C gave Mtb growth Cornell: -1.015%; Mtb heat-shock: -3.19%.
Cc1cccc(CNc2cncc(-n3cccn3)n2)c1 gave Mtb growth Cornell: 38.88%; Mtb heat-shock: 5.83%.
O=C(Cn1nc(N2CCOCC2)ccc1=O)Nc1nccs1 gave Mtb growth Cornell: 5.717%; Mtb heat-shock: -9.839%.
CC(=O)NC1CC(C)(C)Cc2c1cnn2-c1cccc(F)c1 (centres unmarked) gave Mtb growth Cornell: 14.03%; Mtb heat-shock: -12.84%.
[H][C@]12CCN(C(=O)NC3CCCC3)CC[C@@]1([H])S(=O)(=O)N(C)C2 gave Mtb heat-shock: -8.679%.

Repeated from the top, 3 entries:

With O=C(O)C(F)(F)F.[H][C@@]12CCN(CC(=O)NC)C[C@]1([H])CN(C(=O)c1ccc(C)cc1)C2 the screen gave Mtb heat-shock: -25.29%.
With CCc1cccc(OC2CN(C(=O)[C@@H](N)[C@@H](C)O)C2)c1 the screen gave Mtb heat-shock: -19.64%.
With O=C(O)C(F)(F)F.O=C(O)C(F)(F)F.[H][C@]12CCN(c3ncccn3)[C@@]1([H])CC[C@H](COCc1ccccn1)O2 the screen gave Mtb growth Cornell: -6.808%; Mtb heat-shock: -11.93%.

Measurements from “University of Dundee, Small-Polar-MMV Screening Library” (2021), ChEMBL document CHEMBL3988442.